From paper PMC5225424
These are yes or no findings as the source states them, for the method shown. In cells and extracts the contact can be indirect. Some entries that bind do so weakly or less than the wild type.

Amino acid sequences for entries named in this document (tags omitted).
UniProt Q8W171: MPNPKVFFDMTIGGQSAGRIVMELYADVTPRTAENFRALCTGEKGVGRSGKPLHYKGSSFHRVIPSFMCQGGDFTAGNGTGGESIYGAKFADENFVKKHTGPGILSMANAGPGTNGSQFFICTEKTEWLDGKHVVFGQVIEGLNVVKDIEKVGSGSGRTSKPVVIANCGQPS

Biological target: GmCYP1 BiFC fusion (GmCYP1-YN or GmCYP1-YC) (soybean (Glycine max)) (UniProt Q8W171)
Test: split reporter; BiFC: YN and YC fusions co-expressed in N. benthamiana leaf epidermal cells by Agrobacterium infiltration; confocal microscopy of YFP (excitation 514 nm, emission 525-545 nm)

- binding: binds
Substance: GmCYP1 BiFC fusion (GmCYP1-YN or GmCYP1-YC) (from UniProt Q8W171 1-172)
